Results from the supplement of paper PMC4604168 (melanoma cell lines).
This is one part of the list. Repeats are few or missing, and single values can be far off.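 Cells were imaged in 1,536-well plates, and nuclei stained with an antibody against cleaved PARP were counted against all DNA-stained nuclei to give the apoptosis fraction. Screening doses were chosen to leave most cells alive, and resting and induced cleaved-PARP levels differ strongly between cell lines.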

What follows are molecules tested on A2058 (assay: cleaved PARP positive nuclei fraction relative to DMSO control; melanoma cells; higher = more apoptosis). Details: library dose: low library concentration; 72 h.

In order of falling “cleaved PARP positive nuclei fraction” value:
1. CCN(CC)CCCCNc1ncc2cc(-c3cc(OC)cc(OC)c3)c(NC(=O)NC(C)(C)C)nc2n1 + Oc1nc(-c2ccc(C(F)(F)F)cc2)nc2c1CSCC2 [XAV939] (first compound 0.1 µM, partner dose 2 µM)  210%
2. NCC(=O)Nc1ccc(-n2nc(C(F)(F)F)cc2-c2ccc3c(ccc4ccccc43)c2)cc1 + Oc1nc(-c2ccc(C(F)(F)F)cc2)nc2c1CSCC2 [XAV939] (first compound 1 µM, partner dose 2 µM)  183%
3. Oc1cc(-c2nc(-c3ccccc3)[nH]c2-c2ccncc2)ccc1Cl + c1cc(-c2cnn3cc(-c4ccc(OCCN5CCCCC5)cc4)cnc23)ccn1 [Dorsomorphin] (first compound 0.2 µM, partner dose 0.4 µM)  176%
4. O=C(O)C(=O)Nc1sc2c(c1C(=O)O)CCNC2 + Oc1nc(-c2ccc(C(F)(F)F)cc2)nc2c1CSCC2 [XAV939] (first compound 1.66667 µM, partner dose 2 µM)  170%
5. O=C(Nc1ccccc1)c1cc([N+](=O)[O-])ccc1Cl + c1cc(-c2cnn3cc(-c4ccc(OCCN5CCCCC5)cc4)cnc23)ccn1 [Dorsomorphin] (first compound 2 µM, partner dose 0.4 µM)  161%
6. COc1ccc2c(c1)CCC1C2CCC2(C)C(NCCCCCCN3C(=O)C=CC3=O)CCC12 (stereo not given) + COc1ccc(-c2ccc3c(N4CCOCC4)nc(N4C[C@@H](C)O[C@@H](C)C4)nc3n2)cc1CO [KU0063794] (first compound 0.4 µM, partner dose 0.02 µM)  138%
7. COc1ccc(-c2ccc3c(N4CCOCC4)nc(N4C[C@@H](C)O[C@@H](C)C4)nc3n2)cc1CO + COc1ccc(COc2ccc(Cc3cnc(N)nc3N)cc2OC)cc1 [GW2580] (first compound 0.02 µM, partner dose 1 µM)  132%
8. COc1cc(N2CCC(N3CCN(C)CC3)CC2)ccc1Nc1ncc(Cl)c(Nc2ccccc2S(=O)(=O)C(C)C)n1 + CCCCCCCCCCCC1=C(O)C(=O)C=C(O)C1=O [Embelin] (first compound 0.08 µM, partner dose 1.2 µM)  130%
9. NCC(=O)Nc1ccc(-n2nc(C(F)(F)F)cc2-c2ccc3c(ccc4ccccc43)c2)cc1 + COc1ccc(-c2ccc3c(N4CCOCC4)nc(N4C[C@@H](C)O[C@@H](C)C4)nc3n2)cc1CO [KU0063794] (first compound 1 µM, partner dose 0.02 µM)  114%
10. NCC(=O)Nc1ccc(-n2nc(C(F)(F)F)cc2-c2ccc3c(ccc4ccccc43)c2)cc1 + N#Cc1c(O)c2c(-c3ccc(-c4ccccc4O)cc3)csc2[nH]c1=O [A769662] (first compound 1 µM, partner dose 2 µM)  109%
11. NCC(=O)Nc1ccc(-n2nc(C(F)(F)F)cc2-c2ccc3c(ccc4ccccc43)c2)cc1 + O=c1cc(-c2cccc3c2Sc2ccccc2S3)oc(N2CCOCC2)c1 [KU55933] (first compound 1 µM, partner dose 1 µM)  104%
12. CCN(CC)CCCCNc1ncc2cc(-c3cc(OC)cc(OC)c3)c(NC(=O)NC(C)(C)C)nc2n1 + O=S(=O)(c1ccccc1)N(CC(F)(F)F)c1ccc(C(O)(C(F)(F)F)C(F)(F)F)cc1 [T0901317] (first compound 0.1 µM, partner dose 1.4 µM)  98.6%
13. COc1ccc(COc2ccc(Cc3cnc(N)nc3N)cc2OC)cc1 + Cn1cc(/C=C2\C(=O)Nc3cccnc32)c2ccccc21 [GW441756] (first compound 1 µM, partner dose 0.4 µM)  96.9%
14. COC(=O)c1sccc1S(=O)(=O)Nc1ccc(Nc2ccccc2)cc1OC + COc1ccc(COc2ccc(Cc3cnc(N)nc3N)cc2OC)cc1 [GW2580] (first compound 1 µM, partner dose 1 µM)  96.4%
15. N#Cc1c(O)c2c(-c3ccc(-c4ccccc4O)cc3)csc2[nH]c1=O + COc1ccc(-c2ccc3c(N4CCOCC4)nc(N4C[C@@H](C)O[C@@H](C)C4)nc3n2)cc1CO [KU0063794] (first compound 2 µM, partner dose 0.02 µM)  91.7%
16. O=C1NC(=O)/C(=C/c2ccc(-c3ccc(F)cc3O)o2)S1 + c1cc(-c2cnn3cc(-c4ccc(OCCN5CCCCC5)cc4)cnc23)ccn1 [Dorsomorphin] (first compound 1 µM, partner dose 0.4 µM)  86.7%
17. Oc1cc(-c2nc(-c3ccccc3)[nH]c2-c2ccncc2)ccc1Cl + Cc1cc([N+](=O)[O-])ccc1NS(=O)(=O)c1cc(Cl)ccc1Cl [FH535] (first compound 0.2 µM, partner dose 1 µM)  81.9%
18. O=C1NC(=O)/C(=C/c2ccc(-c3ccc(F)cc3O)o2)S1 + Oc1nc(-c2ccc(C(F)(F)F)cc2)nc2c1CSCC2 [XAV939] (first compound 1 µM, partner dose 2 µM)  79%
19. Cn1cc(/C=C2\C(=O)Nc3cccnc32)c2ccccc21 + CCCCCCCCCCCC1=C(O)C(=O)C=C(O)C1=O [Embelin] (first compound 0.4 µM, partner dose 1.2 µM)  76.9%
20. O=C1NC(=O)/C(=C/c2ccc(-c3ccc(F)cc3O)o2)S1 + CC(C)CCN1c2nc(Nc3cc(F)c(O)c(F)c3)ncc2N(C)C(=O)C1C [BID1870] (first compound 1 µM, partner dose 0.2 µM)  65.6%
21. O=S(=O)(c1ccccc1)N(CC(F)(F)F)c1ccc(C(O)(C(F)(F)F)C(F)(F)F)cc1 + c1cc(-c2cnn3cc(-c4ccc(OCCN5CCCCC5)cc4)cnc23)ccn1 [Dorsomorphin] (first compound 1.4 µM, partner dose 0.4 µM)  63.1%
22. NCC(=O)Nc1ccc(-n2nc(C(F)(F)F)cc2-c2ccc3c(ccc4ccccc43)c2)cc1 + O=C(Nc1ccccc1)c1cc([N+](=O)[O-])ccc1Cl [GW9662] (first compound 1 µM, partner dose 2 µM)  62.9%
23. COc1cc2c(Oc3ccc4[nH]c(C)cc4c3F)ncnc2cc1OCCCN1CCCC1 [cediranib] + Oc1nc(-c2ccc(C(F)(F)F)cc2)nc2c1CSCC2 [XAV939] (first compound 0.4 µM, partner dose 2 µM)  61.9%
24. O=C(O)c1ccc(-c2c[nH]c3ncc(-c4ccccc4)cc23)cc1C1CCCC1 + O=c1cc(-c2cccc3c2Sc2ccccc2S3)oc(N2CCOCC2)c1 [KU55933] (first compound 0.16 µM, partner dose 1 µM)  58.6%
25. CN(C)S(=O)(=O)c1ccc2c(c1)/C(=C/c1cc3c([nH]1)CCCC3)C(=O)N2 + O=S(=O)(c1ccccc1)N(CC(F)(F)F)c1ccc(C(O)(C(F)(F)F)C(F)(F)F)cc1 [T0901317] (first compound 0.4 µM, partner dose 1.4 µM)  49.5%
26. CCc1ccc(CCOc2ccc(CC3SC(=O)NC3=O)cc2)nc1 (stereo not given) [pioglitazone] + COc1ccc2c(c1)CCC1C2CCC2(C)C(NCCCCCCN3C(=O)C=CC3=O)CCC12 [U73122] (first compound 2 µM, partner dose 0.4 µM)  47.5%
27. NCC(=O)Nc1ccc(-n2nc(C(F)(F)F)cc2-c2ccc3c(ccc4ccccc43)c2)cc1 + O=S(=O)(c1ccccc1)N(CC(F)(F)F)c1ccc(C(O)(C(F)(F)F)C(F)(F)F)cc1 [T0901317] (first compound 1 µM, partner dose 1.4 µM)  45.5%
28. N#Cc1c(O)c2c(-c3ccc(-c4ccccc4O)cc3)csc2[nH]c1=O + O=C(O)C(=O)Nc1sc2c(c1C(=O)O)CCNC2 [TCS401] (first compound 2 µM, partner dose 1.66667 µM)  40.1%
29. COc1ccc(-c2ccc3c(N4CCOCC4)nc(N4C[C@@H](C)O[C@@H](C)C4)nc3n2)cc1CO + CCCCCCCCCCCC1=C(O)C(=O)C=C(O)C1=O [Embelin] (first compound 0.02 µM, partner dose 1.2 µM)  35.1%
30. COc1ccc2c(c1)CCC1C2CCC2(C)C(NCCCCCCN3C(=O)C=CC3=O)CCC12 (stereo not given) + CC(C)CCN1c2nc(Nc3cc(F)c(O)c(F)c3)ncc2N(C)C(=O)C1C [BID1870] (first compound 0.4 µM, partner dose 0.2 µM)  34.2%
